Results reported in patent US20240352414A1, “THREE-DIMENSIONAL DIRECT NEURONAL REPROGRAMMING TO MODEL ALZHEIMER'S DISEASE IN HUMAN NEURONS” (Washington University, priority 2023, published 2024).
At least one compound was matched to its structure with a doubt left.

What was measured:
LOAD spheroids [1] = test: Aβ deposition by whole mount immunostaining (6E10) in LOAD spheroids; format: cell-based, human; conditions: 100 μM 3TC, PID28, vs H2O
Protocol: β-secretase inhibitor IV (cat #565788), DAPT (cat #D5942), and lamivudine (3TC) (cat #PHR1365) were purchased from Millipore Sigma. To make the stock solution, 5 mM β-secretase inhibitor IV and 40 mM DAPT were dissolved in DMSO and 100 mM 3TC was dissolved in sterile water. For thin gel culture, 2.5 μM β-secretase inhibitor IV, 20 μM DAPT, or 100 μM 3TC was added to the fresh media and used for half media changes starting at PID16 or PID22. For spheroids culture, 5 μM β-secretase inhibitor IV, 40 μM DAPT, or 100 μM 3TC was added to the fresh media and used for half media changes starting at PID16 or PID22.
Whole mount immunofluorescence staining of spheroid: For whole-mount immunostaining of neuronal spheroid, 3D cell culture clearing kit (abcam: ab243299) was used with modifications. Briefly, fixed spheroids on transwell inserts were permeabilized by sequential dehydration and rehydration using different concentrations of ethanol. […]
For quantification of the total volume of Aβ deposits, volume and area of the spheroid, co-localization analysis in tau related pathologies, and number of TUNEL positive cells or total cells, the “surface” module in Imaris was used for 3D reconstruction and quantification. […]

LOAD spheroids [2] = test: Neuronal death (TUNEL staining) in LOAD spheroids; format: cell-based, human; conditions: 100 μM 3TC from PID16 to PID28, compared to control H2O treatment

Nc1ccn([C@@H]2CS[C@H](CO)O2)c(=O)n1 [lamivudine]
Aβ deposition (LOAD spheroids [1]): reduced
neuronal cell death (LOAD spheroids [2]): significantly reduced
